These results are taken from article PMC9507967.

By UniProt entry, the sequences of proteins in these tests, tags left out. Where a name states a change or a piece, a line headed by the entry shows the natural chain unless it says otherwise.
UniProt Q10109: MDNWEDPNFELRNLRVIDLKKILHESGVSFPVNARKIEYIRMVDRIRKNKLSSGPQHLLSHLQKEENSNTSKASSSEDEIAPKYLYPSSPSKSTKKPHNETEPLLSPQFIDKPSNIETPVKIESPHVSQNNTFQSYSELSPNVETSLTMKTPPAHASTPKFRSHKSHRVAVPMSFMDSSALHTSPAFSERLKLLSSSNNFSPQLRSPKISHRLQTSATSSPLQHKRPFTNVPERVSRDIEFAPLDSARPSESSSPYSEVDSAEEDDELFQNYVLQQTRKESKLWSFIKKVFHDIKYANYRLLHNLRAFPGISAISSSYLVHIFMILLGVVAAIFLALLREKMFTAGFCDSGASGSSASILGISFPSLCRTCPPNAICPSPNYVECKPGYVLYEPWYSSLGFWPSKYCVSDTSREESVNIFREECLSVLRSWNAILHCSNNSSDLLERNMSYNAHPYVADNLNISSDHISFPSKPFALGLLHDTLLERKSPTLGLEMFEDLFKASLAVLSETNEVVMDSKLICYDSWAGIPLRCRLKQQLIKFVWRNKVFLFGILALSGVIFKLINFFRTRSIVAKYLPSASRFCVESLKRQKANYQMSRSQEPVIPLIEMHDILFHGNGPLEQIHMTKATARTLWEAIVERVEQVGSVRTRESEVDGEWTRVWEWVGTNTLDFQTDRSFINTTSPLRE
UniProt Q8NC56: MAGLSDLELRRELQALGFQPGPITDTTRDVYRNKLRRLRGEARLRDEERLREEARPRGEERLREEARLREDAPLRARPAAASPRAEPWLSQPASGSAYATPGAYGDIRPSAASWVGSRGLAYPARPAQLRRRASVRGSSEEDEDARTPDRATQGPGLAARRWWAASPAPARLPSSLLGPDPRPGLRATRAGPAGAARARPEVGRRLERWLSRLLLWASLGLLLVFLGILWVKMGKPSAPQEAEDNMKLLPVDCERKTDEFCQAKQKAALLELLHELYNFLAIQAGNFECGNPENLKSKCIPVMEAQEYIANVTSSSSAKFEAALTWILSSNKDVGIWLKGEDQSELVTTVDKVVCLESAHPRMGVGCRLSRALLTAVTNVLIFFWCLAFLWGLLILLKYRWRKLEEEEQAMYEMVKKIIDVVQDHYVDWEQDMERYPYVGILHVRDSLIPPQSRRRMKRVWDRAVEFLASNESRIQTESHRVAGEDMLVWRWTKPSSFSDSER

Test [1] deals with MSC domain of S. pombe Lem2 (MSC-spLem2), yeast two-hybrid fusion (S. pombe) (UniProt Q10109). Nature of the test: two-hybrid; pGADT7 (Gal4 activation domain) and pGBKT7 (Gal4 DNA-binding domain) fusions co-transformed into S. cerevisiae Y2H Gold; spotting on SDC-Leu-Trp, SDC-Leu-Trp-His and SDC-Leu-Trp-His-Ade, grown for 3 days.
Test [2] has as its target MSC domain of human LEM2 (MSC-hsLem2), yeast two-hybrid fusion (human) (UniProt Q8NC56). The description is as above.

No constants are given. Whether binding was seen depends on the method and setting. A result given as binding can be weak or reduced; the word gives no strength. Where a sequence is shown, tags or fusion partners need not be part of it.

B1: Pab2, yeast two-hybrid fusion (protein, UniProt O14327 1-166)
chain: MSDQDALDTQEKELLEMKERVAEMEAEAAKLRAMQEQLDNETEALRNDKESIDAQSVYVGNVDYSVTPEELQSHFASCGSVNRVTILCDKFTGHPKGFAYIEFSEPSLVPNALLLNGSMLHERPLKVTPKRTNVPGMSRGRGRGRGRGRGRGRGGYRGRARGFAPY
Regarding B1, the binding result in test [1] is “no binding”.

B2: full-length S. pombe Red1 (spRed1), yeast two-hybrid fusion (protein, UniProt Q9UTR8 1-712)
chain: MSRSINLDELRKKALESKKKNEEDESNDSDKEDGEISEDDPVIDQSNSVPPMKVPTFPEQIPQLPPFDRFPGTNANFFPFGAPFMLPPALMFGPNTVPFFPQTASSNKTFSKRKRSSENSFNNRNKAKSSETSDSSNTSQSFKENRALKDTATSRPLALSSDTSYQKSEKAKSEKSPFLSTSKNSDANYSKTTNQKEAEKAVSQLFEVGVRFNDFIAEGIEPSVVHTLFLKLGLDSSSASSQGSLTLSADKAARSAKLRKIDSNLSDTHILPGDNGTPTVLPERKNLISLPLLKQDDWLSSSKPFGSSTPNVVIEFDSDDDGDDFSNSKIEQSNLEKPPSNSENGLTMSRSDYLALLRNKEEEIRRMTKLILRLESNKKPYRSPTSAADMKLPSVPVAAVDNKSKTHLDTFEKVVDLSSKADFVEAGPSISSSGASSSAATTNSDTTEQILEAPWLRKTEQIAVVHEEHPAQIKKSEIDILNNLIEKEEGELTKYQTLVKSKTEILTQLYTRKKQLLEQQGKGNVACLPKESDLSMDSITEVSAQADENSSQILSSKTSNAPNGTTETDFEDKVPLVDYISPFYRFKSYRFNQQFVERVPLKYRSLTYSNKIEPMKVFCKYETTGGVCNDDHCEASHFRDIKMTDDEIIQDLSRYIEGNDEIEKESYKSGLDIVMKNTDENTDFVDVATRIVEYHNLWKSERMTIPVAKVSI
Consider B2, for which the binding result in test [1] is reported as “binds”.

B3: S. pombe Rrp6 (spRrp6), yeast two-hybrid fusion (protein, UniProt Q10146 1-777)
chain: MDESELFKGLMNSTAYCSELAKVDIPFYKSIDTEFNENIKSVSSRFMRLIELLLSKVDRSRAEDIVDVEDIDNRWAEVSDTLDILFEKADYSIDKAQGLLKKPAIETHASTSDVANKKPKKEKLPYKVIHAAHLTKPQLRFRVQPNNSREFVWSWKLTEKPHSLVPLEKIIAQVKLDPSLKNSLPHPYEPEIQNSVYPPWVSEMSNPIDTGSVDETEPIWVSTESQLSDMLKELQNSKEIAVDLEHHDYRSFRGFVCLMQISNREKDWIVDTLELREELEALNVVFTNPNIIKVFHGATMDIIWLQRDFGLYVVNLFDTYYATKVLGFEGHGLAFLLQKYCDYDADKRYQMADWRIRPLPREMLKYAQSDTHYLLYIWDHLRNELISKSAERKENLMQSVFNSSKQISLRKYELEPYDPIYGLGTDGWRNVLTKFGSSKIIGREALMIYRALHDWRDSVARKEDESVRYVLPNRLLIAIAASKPVEAADVFSISKQLTPIARMYVEDIVKVVQEAEKLYNEQVDREKSQFKEVEKQNQPLAVFSESNTLGDYKVDSSVFEISKQNRSKLKTLLANGSAFWIEGQSQDDLRKARKERLFIVNQNIPFSLTLPCTQGHVESELNVKQSTVTEAANPSLNGEKKQEPIVIRDLGLNKQKRDSSKLNHKEPSNPIEERNEDIEPSEASTSVSKKRKQKKKKKNSGKLTIEAEHVSNDSPIINEAPFDYKNQKNFIADLDSDVGKNKFGKRGFNPLNKVSLPKRNTRELKKRKVSDGKSTSY
As for B3, the binding entry in test [1] is given as “no binding”.

B4: hsRed1 (H. sapiens homolog of Red1 corresponding to ZFC3H1 492–1308 aa), yeast two-hybrid fusion (domain or fragment, UniProt O60293 492-1308)
chain: VGGKRRSRSKSSDPDLRRSLDKQPTDSGGGIYQYDNYEEVAMDTDSETSSPAPSPVQPPFFSECSLGYFSPAPSLSLPPPPQVSSLPPLSQPYVEGLCVSLEPLPPLPPLPPLPPEDPEQPPKPPFADEEEEEEMLLREELLKSLANKRAFKPEETSSNSDPPSPPVLNNSHPVPRSNLSIVSINTVSQPRIQNPKFHRGPRLPRTVISLPKHKSVVVTLNDSDDSESDGEASKSTNSVFGGLESMIKEARRTAEQASKPKVPPKSEKENDPLRTPEALPEEKKIEYRLLKEEIANREKQRLIKSDQLKTSSSSPANSDVEIDGIGRIAMVTKQVTDAESKLKKHRILLMKDESVLKNLVQQEAKKKESVRNAEAKITKLTEQLQATEKILNVNRMFLKKLQEQIHRVQQRVTIKKALTLKYGEELARAKAVASKEIGKRKLEQDRFGPNKMMRLDSSPVSSPRKHSAELIAMEKRRLQKLEYEYALKIQKLKEARALKAKEQQNISPVVEEEPEFSLPQPSLHDLTQDKLTLDTEENDVDDEILSGSSRERRRSFLESNYFTKPNLKHTDTANKECINKLNKNTVEKPELFLGLKIGELQKLYSKADSLKQLILKTTTGITEKVLHGQEISVDVDFVTAQSKTMEVKPCPFRPYHSPLLVFKSYRFSPYYRTKEKLPLSSVSYSNMIEPDQCFCRFDLTGTCNDDDCQWQHIQDYTLSRKQLFQDILSYNLSLIGCAETSTNEEITASAEKYVEKLFGVNKDRMSMDQMAVLLVSNINESKGHTPPFTTYKDKRKWKPKFWRKPISDNSFSSDEEQ
As for B4, the binding result in test [2] was “binds”.
